No constants are given. Whether binding was seen depends on the method and setting. Binding can be weak; no strength is given.

B1: 10D1F.FcA (anti-HER3 clone 10D1_c89 IgG1) (antibody, V domains shown)
VH: QVQLQESGPGLVKPSQTLSLTCTVSGYSITSGYSWHWIRQHPGKGLEWIGSIRYSGGTDYNPSLKSLVTISADTSKNQFSLKLSSVTAADTAVYYCARMTTAPWYPFDYWGQGTTVTVSS
VL: DIQMTQSPSSVSASVGDRVTITCKASQIVGSNVAWYQQKPGKAPEPLIYSASYLYSGVPSRFSGSGSGTDFTLTISSLQPEDFATYYCQQYSSHPLTFGQGTKLEIKR
B2: anti-HER3 clone 10D1_c75 IgG1 (antibody, V domains shown)
VH: DVQLQEWGAGLLKPSETLSLTCAVTGYSITSGYSWHWIRQFPGNGLEWIGSIHYSGGTNYNPTLKSRITISRDTSKNQFSLKLSSVTAADTAVYFCARMTTAPRYPFDYWGQGTLVTVSS
VL: DIVMTQSPSSLSASVGDLVTITCKASQIVGSNVAWYQMKPGKSPKPLIYSASYLYFGVPSRFSGSGSGTDFTLTISSLQPEDVAEYFCQQYSSHPLTFGPGTKVEIKR
B3: anti-HER3 clone 10D1_c77 IgG1 (antibody, V domains shown)
VH: DVQLQEWGAGLLKPSETLSLTCAVTGYSITSGYSWHWIRQFPGNGLEWIGSIHYSGGTNYNPSLKSRITISRDTSKNQFSLKLSSVTAADTAVYFCARMTTAPRYPFDYWGQGTLVTVSS
VL: VIVMTQSPSSLSASVGDRVTITCKASQIVGPNVAWYQQKPGKSPKPLIYSASYGYSDVPSRFSGSGSGTDFTLTISSLQPEDVAEYFCQQYSTHPLTFGPGTKVEIKR
B4: anti-HER3 clone 10D1_c87 IgG1 (antibody, V domains shown)
VH: DVQLQEWGAGLLKPSETLSLTCAVTGYSITSGYSWHWIRQFPGNGLEWIGSIHYSGGTNYNPSLKSRITISRDTSKNQFSLRLSSVTAADTAVYFCARMTTAPRYPFDYWGQGTLVTVSS
VL: DIVMTQSPSSLSASVGDRVTITCKASQIVGSNVAWYQQMPGKSPEPLIYSASYLYSDVPSRFSGSGSGTDFTMTISSLQPEDVATYYCQQYSSHPLTFGPGTKVEIKR
B5: anti-HER3 clone 10D1_c93 IgG1 (antibody, V domains shown)
VH: DVQLQEWGAGLLKPSETLSLTCAVTGYSITSGYSWHWIRQFPGNGLEWIGSIHYSGGTNYNPSLKSRITISRDTSKNQFSLRLSSVTAADTAVYFCARMTTAPRYPFDYWGQGTLVTVSS
VL: DIVMTQSPSSLSASVGDRVTITCKASQIVGSNVAWYQQKPGKSPKPLIYSASYLYSDVPSRFSGSGSGTDFTMTISSLQPEDVATYYCQQYSSHPLTFGPGTKVEIKR
B6: anti-HER3 clone 10D1_c85o2 IgG1 (antibody, V domains shown)
VH: DVQLQEWGAGLLKPSETLSLTCAVTGYSITSGYSWHWIRQFPGKGLEWIGSIRYSGGTNYNPSLKSRITISRDTSKNQFSLKLGSVTAADTAVYFCARGTTAPRYPFDYWGQGTLVTVSS
VL: DIVMTQSPSSLSASVGDRVTITCKASQIVGSNVAWYQQKPGKSPKPLIYSARYQYSGVPFRFSGSGSGTDFTLTISSLQPEDVATYYCQQYSSHPLTFGPGTKVEIKR
B7: anti-HER3 clone 10D1_11B IgG1 (antibody, V domains shown)
VH: DVQLQEWGAGLLKPSETLSLTCAVYGYSITSGYSWHWIRQPPGKGLEWIGSIHYSGGTNYNPSLKSRVTISRDTSKNQFSLKLSSVTAADTAVYYCARMTTAPRYPFDYWGQGTLVTVSS
VL: DIVMTQSPSSLSASVGDRVTITCKASQIVGSNVAWYQQKPGKSPKPLIYSASYGYSDVPSRFSGSGSGTDFTLTISSLRPEDVATYYCQQYSSHPLTFGPGTKVEIKR
B8: anti-HER3 clone 10D1_c85o1 IgG1 (antibody, V domains shown)
VH: DVQLQEWGAGLLKPSETLSLTCAVTGYSITSGYSWHWIRQFPGKGLEWIGSIRYSGGTNYNPSLKSRITISRDTSKNQFSLKLGSVTAADTAVYFCARETTAPRYPFDYWGQGTLVTVSS
VL: DIVMTQSPSSLSASVGDRVTITCKASQIVGSNVAWYQQKPGKSPKPLIYSARYQYSGVPFRFSGSGSGTDFTLTISSLQPEDVATYYCQQYSSHPLTFGPGTKVEIKR
B9: anti-HER3 clone 10D1_c76 IgG1 (antibody, V domains shown)
VH: DVQLQEWGAGLLKPSETLSLTCAVTGYSITSGYSWHWIRQFPGNGLEWIGSIHYSGGTNYNPSLKSRITISRDTSKNQFSLKLSSVTAADTAVYFCARMTTAPRYPFDYWGQGTLVTVSS
VL: DIVMTQSPSSLSASGGDRVTITCKASQIVGYNVAWYQQKPGKSPKPLIYSASYLYSDVPSRFSASGSGTDFTLTISSLQPEDVAEYFCQQYSSHPLTFGPGTKVEIKR
B10: anti-HER3 clone 10D1_c90 IgG1 (antibody, V domains shown)
VH: QVQLQESGPGLVKPSQTLFLTCTVSGYSITSGYSWHWIRQHPGKGLEWIGSIRYSGGTDYNPSLKSLVTISVDTSKNQFSLKLSSVTAADTAVYYCARMTTAPWYPFDYWGQGTTVTVSS
VL: DIQMTQSPSSVSASVGDRVTFTCKASQIVGSNVAWYQQKPGKAPEPLIYSASYLYSSVPSRFSGSGSGTEFTMTISSLEPEDFATYYCQQYTTHPLTFGPGTKVEIKR
B11: anti-HER3 clone 10D1_c91 IgG1 (antibody, V domains shown)
VH: QVQLQESGPGLVKPSQTLSLTCTVSGYYITSGYSWHWIRQHPGKGLEWIGSIRYSGGTDYNPSLKSLATISADTSKNQFSLKLSSVTAADTAVYYCARMTTAPWYPFDYWGQGTAVTVSS
VL: DIQMTQSPSSVSASVGDRVTITCKASQIVGSNVAWYQQKPGKAPMPLIYSASYGYSGVPSRFSGSGSGTDFTLTISSLQPEDFATYYCQQYSSHPLTFGQGTKLEIKR

The target of the first test is human HER3 polypeptide (Sino Biological Inc.) (human). The test can be described thus: ELISA, target polypeptide coated. A general note: In an ELISA, binding on a coated surface is turned into a signal by an enzyme label.
In the case of B1, the binding entry was “binds”.

For another test the target is unchanged. The test can be described thus: ELISA, human HER3 polypeptide coated.
On to B2, for which the binding entry is on record as “binds”.

As to B3, the binding result was “binds”.

For B4, the binding result is given as “binds”.

As for B5, the binding result is on record as “binds”.

On to B6, for which the binding entry is given as “binds”.

Turning to B7, the binding entry is reported as “binds”.

Regarding B8, the binding result is listed as “binds”.

On to B9, for which the binding result was “binds”.

Turning to B1, the binding result was “binds”.

With B10, the binding result was “binds”.

For the molecule B11, the binding entry is given as “binds”.

These data come from patent US20260132219A1.
